# Source: PubChem BioAssay AID2685 (National Center for Advancing Translational Sciences (NCATS), 2010)
# Some of the results follow. The main result of the screen is listed elsewhere. These columns were measured beside it and carry no call. Most of these compounds were active or inconclusive in the main read-out, so they are no random draw. Words in brackets tell the shape of the fitted curve; partial curves, single points and poor fits give uncertain potencies.
# Experiment: qHTS Assay for Lipid Storage Modulators in Drosophila S3 Cells;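 as to cell number change: cells counted by Cell Tracker Red CMTPX staining in the red channel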
# Settings: BODIPY lipid droplet fluorescence, 18-24 h; for cell number change: measured here: cell count max response, cells fed with added oleic acid
# In short: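 Drosophila S3 cells loaded with oleic acid (400 uM, as added) and compounds at several concentrations; lipid droplets imaged by 488-nm laser-scanning cytometry, 500–530 nm intensity and object ratio to cell channel. Percent activity normalized to 20 uM Triacsin C.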
# [1] = measured here: cell number channel AC50, cells fed with added oleic acid
# [2] = measured here: lipid fluorescence (Fed channel) AC50, cells fed with added oleic acid
SMILES,cell number change,AC50 [1],AC50 [2]
Cc1cccc(C(=O)NC2CCN(S(=O)(=O)c3ccccc3F)CC2)c1,-44.6%,"8.2 µM [falling, partial curve]","29.1 µM [falling, single point]"
Cc1cc(C)n(S(=O)(=O)c2ccc3oc(=O)ccc3c2)n1,-11.4%,–,–
CCCC(=O)Nc1ccc(S(=O)(=O)Nc2cc(C)nc(C)n2)cc1,-4.84%,–,–
CC1CCC(NC(=O)c2ccc(CNc3c(NC4CCCCC4)c(=O)c3=O)cc2)CC1 (stereo unspecified),-30.7%,"16.4 µM [falling, single point]",–
N=c1n(CC(=O)O)c2ccccc2n1Cc1ccccc1Cl,2.62%,–,"0.461 µM [falling, full curve]"
CC1C/C(=N\NC(=S)NC(C)C)CC(C)(C)C1 (stereo unspecified),40.9%,"0.92 µM [rising, full curve]","1.3 µM [rising, partial curve]"
CCNC(=S)N(Cc1ccco1)Cc1cc2cc(OCC)ccc2[nH]c1=O,-43.7%,"23.1 µM [falling, single point]","20.6 µM [falling, single point]"
O=[N+]([O-])c1ccc(CSc2ccc(-c3ccccn3)nn2)cc1,4.46%,–,–
COc1ccccc1CC(=O)N1CCN(S(=O)(=O)c2ccccc2)CC1,21%,–,"0.13 µM [falling, full curve, poor fit]"
Cc1ccc(-n2c(-c3ccncc3)nnc2-c2ccco2)cc1,1.8%,–,"1.16 µM [rising, full curve]"
Cc1cc(C)c(S(=O)(=O)n2ccc(-c3ccc(OCCN(C)c4ccccn4)cc3)n2)c(C)c1,25.9%,–,"32.6 µM [rising, partial curve, poor fit]"
CCOC(=O)c1cc(=O)n2[nH]c(-c3ccc(C)cc3)cc2n1,-23%,–,"29.1 µM [falling, single point]"
O=C(NCC1CCCO1)c1ccc2c(=O)n(Cc3cccc(Br)c3)c(=S)[nH]c2c1 (stereo unspecified),–,"5.8 µM [rising, partial curve, poor fit]",–
COc1ccc(Cn2nnnc2C(c2cccs2)N2CCOCC2)cc1 (stereo unspecified),3.55%,–,"1.16 µM [rising, single point]"
Cn1cc(/C=N/NC(=O)COc2ccccc2[N+](=O)[O-])c2ccccc21,11.3%,–,–
Cc1ccc(OCC(=O)NNC(=O)Cn2nnc(-c3ccccc3)n2)cc1,-9.86%,–,"0.517 µM [falling, partial curve, poor fit]"
CSCCC(C(=O)NC1=NCCS1)N1C(=O)c2ccccc2C1=O (stereo unspecified),4.87%,–,–
CC(C)C(=O)NC(=S)/C=C1/N(C)c2ccccc2C1(C)C,-50.3%,–,–
Cc1cccn2c(=O)c3cc(C(=O)N4CC(C)CC(C)C4)sc3nc12 (stereo unspecified),-13.5%,–,"29.1 µM [rising, single point]"
COc1ccc2c(c1)-c1c(sn(-c3ccc(OC)c(OC)c3)c1=S)C(C)(C)N2,-64.5%,–,"16.4 µM [falling, partial curve]"
Cc1ccc(NC(=O)c2cc(N3C(=O)C=CC3=O)ccc2N2CCOCC2)cc1Cl,-36.1%,"9.2 µM [falling, partial curve]","29.1 µM [falling, partial curve, poor fit]"

SMILES,cell number change,AC50 [1],AC50 [2]
O=C(CSc1nnc(-c2cccs2)n1CC1CCCO1)c1cc2ccccc2o1 (stereo unspecified),4.58%,–,"25.9 µM [rising, single point]"
COc1cccc(OC)c1C(=O)Nc1ccccc1N1CCCCC1,-32.8%,"16.4 µM [falling, single point]","16.4 µM [falling, single point]"
COC(=O)c1cccc(C23CC4(C2)[C@H](CN(Cc2cccnc2)[C@@H]4c2ccccc2)C3c2ccccc2)c1 (stereo partly specified),-34.9%,"32.6 µM [falling, single point]","4.61 µM [falling, single point]"
CC1CCCCN1CC(=O)Nc1cc(S(=O)(=O)N2CCOCC2)ccc1N1CCCC1 (stereo unspecified),-81.7%,"9.2 µM [falling, partial curve, poor fit]",–
O=C(Cn1c(=O)cnc2ccccc21)NCC(=O)Nc1ccc(F)c(F)c1,–,–,"3.26 µM [falling, partial curve, poor fit]"
COc1ccc(C(=O)NCc2nnc(SCC(=O)c3ccccc3)n2C)cc1,118%,"32.6 µM [rising, partial curve]","6.51 µM [rising, single point]"
CC(C)(C)NC(=O)c1oc2ccccc2c1COc1ccccc1,8.6%,–,"20.6 µM [falling, single point]"
CC(C)CC(=O)Nc1nnc(CCc2ccccc2)s1,8.42%,–,–
COc1ccc(C2(c3ccc(OC)cc3)NC(=O)N(CC(=O)Nc3ccc(OC(F)F)cc3)C2=O)cc1,-3.98%,–,"2.31 µM [rising, single point]"
CC(C)CNC(=O)c1ccc(Cl)c(NC(=O)COc2ccccc2)c1,10.5%,–,–
O=[N+]([O-])c1cc(S(=O)(=O)Nc2cccc(Cl)c2)ccc1N/N=C/c1ccc(N2CCOCC2)cc1,-32.9%,"4.61 µM [falling, partial curve]","0.366 µM [falling, full curve]"
COC(=O)C1C(=O)C2=C(CC1C)NC(C)=C(C(=O)OC(C)C)C2c1ccc(C)o1 (stereo unspecified),–,–,"6.51 µM [rising, single point]"
CC(C)OC(=O)c1c(NC(=O)Cn2cnc([N+](=O)[O-])n2)sc2c1CCCC2,127%,"0.103 µM [rising, full curve, poor fit]","0.092 µM [rising, full curve, poor fit]"
O=C(NCc1ccccc1)c1nnc(CS(=O)(=O)c2ccccc2)o1,28.8%,–,"0.58 µM [falling, single point]"
COc1cccc(Nc2ncnc3c2cnn3C)c1,-8.41%,–,–
O=C(Cn1nnc(-c2ccccc2NC(=O)c2ccco2)n1)NC1CCCCC1,9.44%,–,–
CCOc1ccc(OCCSc2nc3ccccc3[nH]2)cc1,-22.5%,–,"20.6 µM [falling, single point]"
COC(=O)c1ccc(CN2C(=O)NC(CC(C)C)C2=O)cc1 (stereo unspecified),1.24%,"0.0651 µM [rising, full curve, poor fit]","0.092 µM [rising, full curve, poor fit]"
CS(=O)(=O)N1CCCC(C(=O)NCc2ccccc2Cl)C1 (stereo unspecified),-160%,"29.1 µM [falling, partial curve]","0.206 µM [falling, full curve, poor fit]"
Cc1nc2ccccc2cc1OCc1ccccc1,-24.3%,–,"20.6 µM [falling, single point]"
Cc1cc(C)nc(/N=C2\NC(=O)CC(C(=O)O)N2c2ccc(Cl)cc2Cl)n1 (stereo unspecified),-8%,"4.61 µM [falling, single point]",–

SMILES,cell number change,AC50 [1],AC50 [2]
Cc1ccc(C2=NN(C(=O)CN3C(=O)c4ccccc4S3(=O)=O)C(c3ccco3)C2)cc1 (stereo unspecified),16.7%,–,"16.4 µM [rising, single point]"
O=C(Cn1cnc2cc(Cl)ccc2c1=O)Nc1ccc2c(c1)OCO2,-4.9%,–,"6.51 µM [rising, single point]"
O=C(CCCOc1ccccc1)N1CCCCC1,1.19%,–,–
CCCOc1ccc(CC(=O)NCCc2ccccc2)cc1OC,20.5%,–,–
CCC1(C)CC(=O)N(c2ccc(F)c(Cl)c2)C(=O)C1,1.39%,–,"20.6 µM [falling, partial curve, poor fit]"
O=S(=O)(NCc1ccco1)c1ccc2ccccc2c1,32.1%,–,–
COc1ccc(-n2c(=O)c(CCC(=O)N3CCC(C)CC3)nc3ccccc32)cc1,9.94%,–,"1.16 µM [falling, full curve, poor fit]"
COc1ccc(OC)c(NC(=O)CSc2nnc(N)s2)c1,7.41%,–,"2.31 µM [rising, full curve]"
CC(C)C(OC(=O)c1cccs1)C(=O)NCc1ccco1 (stereo unspecified),-19.2%,–,"2.31 µM [falling, single point]"
COc1ccc(-c2ccnc3c(Br)c(C)nn23)cc1,-15.3%,–,"29.1 µM [falling, single point]"
Cc1ccc(C(C)C)cc1OCC(=O)Nc1ccc(N2CCCCC2)cc1,57%,"29.1 µM [rising, single point]",–
O=C(CSc1ncn[nH]1)c1ccc2c(c1)OCCO2,-128%,"20.6 µM [falling, partial curve, poor fit]",–
Cc1ccc(COC(=O)c2ccc3ccccc3n2)cc1,8.26%,–,"6.51 µM [rising, single point]"
Cc1nc(NCCCn2ccnc2)c2oc3ccccc3c2n1,-8.42%,–,–
CCOc1ccc(NC(=O)c2ccccc2CO)cc1,9.69%,–,"0.206 µM [rising, partial curve, poor fit]"
Cn1c(N)c(C(=O)c2ccc(Cl)cc2)c(=O)n(C)c1=O,14.4%,–,"11.6 µM [rising, partial curve, poor fit]"
Cc1ccc(C(=O)Nc2cccc([N+](=O)[O-])c2)cc1S(=O)(=O)Nc1ccc(NC(=O)c2ccccc2)cc1,17.7%,–,"0.146 µM [rising, full curve, poor fit]"
Cc1nn(CC(=O)NNC(=S)NCC2CCCO2)c(C)c1Br (stereo unspecified),-8.11%,–,–
CC(=O)N1CCN(c2ccc(NC(=O)c3ccc(C(C)(C)C)cc3)cc2)CC1,-32.9%,"20.6 µM [falling, single point]",–
O=C(CCn1nnc2ccccc2c1=O)N[C@@H](Cc1c[nH]c2ccccc12)C(=O)O,-25.1%,–,–
